The test concerns the target Ppp2r1a (PP2A scaffold protein, structural subunit A) (mouse (endogenous in intestinal organoids and CT26)) (UniProt Q76MZ3). Kind of test: co-IP; Ppp2r1a pulldown of CT26 cell lysates, cells treated without and with LB100; western blotting for pRb and pHDAC2. (Immunoblotting shows a protein as a band on a membrane.)

By UniProt entry, the sequences of proteins in these tests, tags left out.
UniProt Q76MZ3: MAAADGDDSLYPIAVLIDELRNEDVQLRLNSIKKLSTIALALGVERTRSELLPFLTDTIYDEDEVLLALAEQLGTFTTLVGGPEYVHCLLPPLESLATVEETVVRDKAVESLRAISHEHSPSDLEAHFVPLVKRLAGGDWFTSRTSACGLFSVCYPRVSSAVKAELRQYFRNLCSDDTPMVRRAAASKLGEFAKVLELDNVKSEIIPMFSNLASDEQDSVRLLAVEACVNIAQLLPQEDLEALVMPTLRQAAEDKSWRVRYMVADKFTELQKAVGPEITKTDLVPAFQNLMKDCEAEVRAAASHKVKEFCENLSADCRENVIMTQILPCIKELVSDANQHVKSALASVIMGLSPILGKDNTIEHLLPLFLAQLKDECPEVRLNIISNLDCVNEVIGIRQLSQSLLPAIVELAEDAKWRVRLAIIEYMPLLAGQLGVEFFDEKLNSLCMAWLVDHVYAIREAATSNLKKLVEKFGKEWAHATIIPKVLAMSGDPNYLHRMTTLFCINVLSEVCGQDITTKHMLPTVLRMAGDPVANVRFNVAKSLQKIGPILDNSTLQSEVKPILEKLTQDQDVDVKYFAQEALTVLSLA
UniProt P70288: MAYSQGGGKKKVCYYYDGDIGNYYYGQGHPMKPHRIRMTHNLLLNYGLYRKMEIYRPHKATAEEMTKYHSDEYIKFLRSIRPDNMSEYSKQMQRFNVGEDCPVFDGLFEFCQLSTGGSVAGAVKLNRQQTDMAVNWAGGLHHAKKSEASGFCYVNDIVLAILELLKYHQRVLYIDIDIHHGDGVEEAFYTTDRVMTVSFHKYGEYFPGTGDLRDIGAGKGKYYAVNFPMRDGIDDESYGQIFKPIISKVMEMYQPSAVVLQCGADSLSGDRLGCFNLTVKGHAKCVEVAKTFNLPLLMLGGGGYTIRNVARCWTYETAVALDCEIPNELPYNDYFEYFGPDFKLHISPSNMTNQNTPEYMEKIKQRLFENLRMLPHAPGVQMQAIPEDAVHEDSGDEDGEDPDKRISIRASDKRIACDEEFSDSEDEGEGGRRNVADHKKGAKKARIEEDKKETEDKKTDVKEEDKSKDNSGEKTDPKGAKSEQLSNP

Results are given in words; binding and its absence hold for the method and conditions named. In cells and extracts the contact can be indirect. Some entries that bind do so weakly or less than the wild type.

Turning to “phospho-HDAC2 (pHDAC2) (from UniProt P70288 1-488)”, the binding entry is recorded as “binds”.

B1: phospho-Rb (pRb) (protein, UniProt P13405 1-921)
chain: MPPKAPRRAAAAEPPPPPPPPPREDDPAQDSGPEELPLARLEFEEIEEPEFIALCQKLKVPDHVRERAWLTWEKVSSVDGILEGYIQKKKELWGICIFIAAVDLDEMPFTFTELQKSIETSVYKFFDLLKEIDTSTKVDNAMSRLLKKYNVLCALYSKLERTCELIYLTQPSSALSTEINSMLVLKISWITFLLAKGEVLQMEDDLVISFQLMLCVVDYFIKFSPPALLREPYKTAAIPINGSPRTPRRGQNRSARIAKQLENDTRIIEVLCKEHECNIDEVKNVYFKNFIPFINSLGIVSSNGLPEVESLSKRYEEVYLKNKDLDARLFLDHDKTLQTDPIDSFETERTPRKNNPDEEANVVTPHTPVRTVMNTIQQLMVILNSASDQPSENLISYFNNCTVNPKENILKRVKDVGHIFKEKFANAVGQGCVDIGVQRYKLGVRLYYRVMESMLKSEEERLSIQNFSKLLNDNIFHMSLLACALEVVMATYSRSTLQHLDSGTDLSFPWILNVLNLKAFDFYKVIESFIKVEANLTREMIKHLERCEHRIMESLAWLSDSPLFDLIKQSKDGEGPDNLEPACPLSLPLQGNHTAADMYLSPLRSPKKRTSTTRVNSAANTETQAASAFHTQKPLKSTSLALFYKKVYRLAYLRLNTLCARLLSDHPELEHIIWTLFQHTLQNEYELMRDRHLDQIMMCSMYGICKVKNIDLKFKIIVTAYKDLPHAAQETFKRVLIREEEFDSIIVFYNSVFMQRLKTNILQYASTRPPTLSPIPHIPRSPYKFSSSPLRIPGGNIYISPLKSPYKISEGLPTPTKMTPRSRILVSIGESFGTSEKFQKINQMVCNSDRVLKRSAEGGNPPKPLKKLRFDIEGADEADGSKHLPAESKFQQKLAEMTSTRTRMQKQRMNESKDVSNKEEK
modifications: phosphorylated (pRb); sites not stated
Regarding B1, the binding result is recorded as “binds”.

For the origin of these results see paper PMC8674339.
